Results from patent US12523646B2, “Device and method for cell-based drug screening” (The Regents of the University of California, priority 2017, dated 2026).
At least one structure is not confirmed: it was looked up by name or label, or the drawing left a doubt.

Key:
[1] = Elution of fluorescein from microwells sealed with porous hydrogel beads; type: physicochemical; settings: observed, medium exchanged to plain buffer
[2] = cited from earlier work
[3] = Numerical simulations (Comsol Multiphysics) of small-molecule concentration dynamics with porous beads and conical microwells; settings: 225 μm diameter beads

## O=C1OC2(c3ccc(O)cc3Oc3cc(O)ccc32)c2ccccc21 [fluorescein]
[1]
  elution time tel from under beads in microwells: approximately 110 min
[2]
  diffusion coefficient in water: 425 μm^2/s
[3]
  fold slower diffusion in bead as compared with water: 15,000 fold
